About 45 (3%) of roughly 1,400 compounds were called active.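 How the source made its calls: active means half-maximal dose of signal decrease from fit no higher than ten times the top valid tested dose; inconclusive means fit invalid, or curve flat with 30 to 70% inhibition; inactive means the rest.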 This is one part of the list. Measured potencies and affinities stand elsewhere.
Molecular target: Lysine-specific demethylase 4A (Homo sapiens) (UniProt O75164)
Test: JMJD2A histone demethylase inhibitors, dose response, selectivity assay for GASC-1 inhibitor project, biochemical, DELFIA europium, cherry-picked samples (AID 488840);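 further: europium signal reports the dimethyl H3K9 product detected by antibody so inhibitors lower it; 0% = median of neutral control wells and -100% = median of positive control wells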
Conditions: GST-JMJD2A(1-420) H3K9me3 demethylation; at 6 µM (top of the series) unless noted

Amino acid sequences for entries named in this document (tags omitted). A change or cut given only in a name is not applied to a line headed by its entry.
UniProt O75164: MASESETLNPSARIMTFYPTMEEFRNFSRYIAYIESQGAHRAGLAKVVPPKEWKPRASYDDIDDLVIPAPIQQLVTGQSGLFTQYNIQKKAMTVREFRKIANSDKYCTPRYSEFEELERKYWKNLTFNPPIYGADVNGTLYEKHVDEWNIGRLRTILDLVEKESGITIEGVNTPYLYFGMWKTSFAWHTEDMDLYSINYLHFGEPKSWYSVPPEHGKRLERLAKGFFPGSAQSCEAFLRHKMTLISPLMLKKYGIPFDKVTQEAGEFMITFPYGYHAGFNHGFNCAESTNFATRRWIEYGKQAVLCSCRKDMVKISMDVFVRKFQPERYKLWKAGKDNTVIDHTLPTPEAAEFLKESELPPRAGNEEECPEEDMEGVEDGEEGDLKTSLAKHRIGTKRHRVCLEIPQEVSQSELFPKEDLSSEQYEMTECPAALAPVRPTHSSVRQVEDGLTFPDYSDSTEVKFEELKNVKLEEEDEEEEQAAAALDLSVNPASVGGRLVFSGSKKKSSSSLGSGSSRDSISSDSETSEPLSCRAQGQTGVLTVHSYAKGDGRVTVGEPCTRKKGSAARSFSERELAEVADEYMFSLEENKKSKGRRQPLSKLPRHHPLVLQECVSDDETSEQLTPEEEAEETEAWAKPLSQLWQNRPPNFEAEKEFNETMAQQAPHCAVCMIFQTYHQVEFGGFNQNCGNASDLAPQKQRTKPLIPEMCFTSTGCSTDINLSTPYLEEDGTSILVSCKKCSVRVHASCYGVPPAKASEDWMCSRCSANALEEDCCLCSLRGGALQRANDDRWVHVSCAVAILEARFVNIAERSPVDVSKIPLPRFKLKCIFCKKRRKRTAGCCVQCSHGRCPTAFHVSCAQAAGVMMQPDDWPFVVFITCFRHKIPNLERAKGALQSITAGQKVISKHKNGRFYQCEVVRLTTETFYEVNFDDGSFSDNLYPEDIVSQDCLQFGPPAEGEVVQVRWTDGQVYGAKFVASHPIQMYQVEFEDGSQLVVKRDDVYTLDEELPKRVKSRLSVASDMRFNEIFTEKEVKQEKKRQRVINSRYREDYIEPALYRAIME

Activity change, negative = inhibition, inactive:
COc1ccccc1Nc1ncnc2ccccc12 4.58%
C=CCOC(=O)C1=C(C)NC(=O)NC1c1ccc(OC(=O)c2ccco2)c(OC)c1 (stereo not given) -6.19%
Cc1cccc(C)c1NC1=NC(=S)N(c2ccc(C(=O)O)cc2)C12CCCCC2 -1.89%
Cc1cccc(C)c1NC(=S)NN(Cc1ccccc1)c1ccccc1 -6.29%
Nc1ccc(S(=O)(=O)NC2(C(F)(F)F)NC(=O)N(c3ccc(F)cc3)C2=O)cc1 (stereo not given) 0.62%
CCCc1nnc(SCC(=O)N2CCCC2)n1CC1CCCO1 (stereo not given) 6.01%
CCOc1ccc(NC(=O)CSc2nnc(-c3ccccc3)n2N)cc1 -4.84%
NNC(=O)c1nn(-c2ccc(Cl)cc2)ccc1=O -3.37%
C=CCn1cnc2scc(-c3ccc(C)cc3)c2c1=O 1.31%
Cc1ccc(N2CC(C(=O)Nc3ccc(N(C)C)cc3)CC2=O)cc1C (stereo not given) -0.0994%
Cc1cccc(NC(=S)N(CCN2CCOCC2)Cc2cc3cc4c(cc3[nH]c2=O)OCO4)c1 0.379%
Cn1c2c(c(=O)n(C)c1=O)CN(CCCN1CCOCC1)CN2 -1.93%
CCOC(=O)c1[nH]c(C)c(/C(O)=C2\C(=O)C(=O)N(CCCN(CC)CC)C2c2cccnc2)c1C (stereo not given) -0.856%
COc1ccc(/C=C/C(=O)NC(=S)NNC(=O)Cc2cccs2)cc1OC -3.45%
Cc1cc(=O)[nH]c(SCC(=O)Nc2ncc(S(=O)(=O)c3ccc([N+](=O)[O-])cc3)s2)n1 0.585%
CC1CCCCC12NC(=O)N(CC(=O)NCCc1ccccn1)C2=O (stereo not given) -0.817%
C[C@H]1CN([C@@H](C)CO)C(=O)c2cccc(NC(=O)C3CC3)c2O[C@H]1CN(C)Cc1ccncc1 -4.04%
CC(C)=CC(=O)O[C@@H]1Cc2c(ccc3ccc(=O)oc23)OC1(C)C -0.336%
O=C1CC2C(=O)NCCN2C(=NC(=O)c2ccccc2)N1 (stereo not given) 7.77%
CSCCC(NS(=O)(=O)c1ccc(Cl)cc1)C(=O)O (stereo not given) 3.06%
COc1ccc(OC)c(N(CC(=O)NCc2ccncc2)S(C)(=O)=O)c1 -0.807%
COc1ccc2sc(-c3ccc(S(C)(=O)=O)cc3)c(C#CCO)c2c1 -2.02%
O=C(Nc1ccccc1C(=O)N1CCOCC1)c1noc2c1CCCC2 8.98%
Cc1noc(C)c1S(=O)(=O)N(C)C[C@H]1Oc2c(cccc2N(C)C)C(=O)N([C@H](C)CO)C[C@@H]1C -2.38%
c1ccc2c(c1)ccc1nnc(-c3ccc4c(c3)OCO4)n12 3.37%
COc1ccc(C2CC(c3cccs3)=NN2S(=O)(=O)c2ccc(C)cc2)cc1 (stereo not given) 7.91%
Cc1cccc(N2CCN(C(=O)c3ccc(CS(=O)(=O)c4ccccc4C)o3)CC2C)c1 (stereo not given) 4.2%
Cc1cccc(OCCCn2c(=O)oc3ccc(C)cc32)c1 0.479%
CCCC(=O)Nc1ccc(Oc2ccc(NC(=O)CCC)cc2)cc1 0.263%
COc1ccc(/C=N/n2c(=O)[nH]c3c([nH]c4ccc(Br)cc43)c2=O)cc1CN1CCOCC1 2.87%
CCOc1ccc(N2CC(C(=O)Nc3nnc(Cc4ccc(OC)cc4)s3)CC2=O)cc1 (stereo not given) -2.52%
CNC[C@@H]1Oc2c(NC(=O)Nc3ccccc3)cccc2C(=O)N([C@@H](C)CO)C[C@H]1C 0.201%
CCOC(=O)c1csc(N/N=C2\CCc3ccccc32)n1 -1.87%
OC1(c2cccc(F)c2)CCN(Cc2ccncc2)CC1 0.57%
CNC(=O)c1sccc1-n1cccc1 -1.48%
CC(=O)N1CCc2cc(S(=O)(=O)NC(CC(C)C)C(=O)Nc3cc(C(=O)O)ccc3C)ccc21 (stereo not given) -4.87%
O=C1/C(=C/c2cccs2)COc2ccccc21 2.89%
NC(=O)NC(=O)CSc1nnc(-c2ccco2)n1Cc1ccccc1 -0.393%
O=C(Nc1ccc(Cl)c(C(F)(F)F)c1)NC1CC2CCCC(C1)N2Cc1ccccc1 (stereo not given) -1.41%
COC(=O)[C@]1(C)N[C@H](CN(C)C(=O)Nc2ccccc2)[C@@H]2C(=O)N(Cc3ccccc3)C(=O)[C@@H]21 6.46%
COc1ccc(-n2cc(CNCCc3cscn3)c(-c3ccccc3Cl)n2)cc1 -8.2%
Cc1ccccc1NC(=S)c1nc2ccccc2[nH]1 -0.0357%
C[C@H](CO)N1C[C@H](C)[C@@H](CN(C)S(C)(=O)=O)Oc2ccc(N(C)C)cc2C1=O 2.91%
O=[N+]([O-])c1ccccc1NCc1ccc(Cl)cc1 -3.88%
O=C(NCCCNCCCNC(=O)c1ccc(/C=N/O)nc1)c1ccc(/C=N/O)nc1 14%
CCN(C[C@H]1N[C@@](CC)(C(=O)OC)[C@H]2C(=O)N(C)C(=O)[C@@H]12)S(=O)(=O)c1ccc(C(F)(F)F)cc1 12.9%
NCc1nc(-c2ccc(Cl)cc2)no1 -3.41%
O=C(CSc1nnc(CNC(=O)c2ccccc2F)o1)NCCc1ccccc1 3.34%
CCOC(=O)N1CCC2(CC1)C(C#N)=C(N)OC1=C2C(=O)CC(C)(C)C1 1.08%
CCOC(=O)c1cc2nc(Nc3ccc(OC)cc3)sc2s1 -5.27%
Cn1c(=O)c2[nH]c(N3CCN(c4cccc(O)c4)CC3)nc2n(C)c1=O 1.58%
Oc1cccc(/C=N/NC(=S)NCCN2CCOCC2)c1O -6.83%
C#CCOCCOCCOCCNc1nc(N2CCOCC2)nc(N2CCN(C(=O)[C@H](Cc3cc4ccccc4[nH]3)n3cc([C@@H](N)CC(C)C)nn3)CC2)n1 -4.26%
CCOc1cc(/C=C\c2[nH]c(=O)[nH]c(=O)c2[N+](=O)[O-])ccc1OC(C)CC (stereo not given) 2.73%
Cc1cc(N/N=C/c2ccc(O)cc2O)nc(-n2nc(C)cc2C)n1 9.61%

Random excerpt: four entries already listed.
Activity change, negative = inhibition, inactive:
COc1ccccc1Nc1ncnc2ccccc12 4.58%
CCCc1nnc(SCC(=O)N2CCCC2)n1CC1CCCO1 (stereo not given) 6.01%
CCCC(=O)Nc1ccc(Oc2ccc(NC(=O)CCC)cc2)cc1 0.263%
O=C1/C(=C/c2cccs2)COc2ccccc21 2.89%
